Publication PMC11658451, “The human Dicer helicase domain is capable of ATP hydrolysis and single-stranded nucleic acid binding” (BMC Biology, 2024)

Legend:
[1] = target: T1, HEL (hDicer helicase domain) (Homo sapiens) (UniProt Q9UPY3); assay: EMSA; conditions: 50 mM Tris-HCl pH 7.5, 150 mM NaCl, EMSA 15 min at room temperature (also 4 and 37 C), recombinant protein, residues 1-624, protein details: N-terminal His6 (pMCSG7)
T1 sequence (looked up): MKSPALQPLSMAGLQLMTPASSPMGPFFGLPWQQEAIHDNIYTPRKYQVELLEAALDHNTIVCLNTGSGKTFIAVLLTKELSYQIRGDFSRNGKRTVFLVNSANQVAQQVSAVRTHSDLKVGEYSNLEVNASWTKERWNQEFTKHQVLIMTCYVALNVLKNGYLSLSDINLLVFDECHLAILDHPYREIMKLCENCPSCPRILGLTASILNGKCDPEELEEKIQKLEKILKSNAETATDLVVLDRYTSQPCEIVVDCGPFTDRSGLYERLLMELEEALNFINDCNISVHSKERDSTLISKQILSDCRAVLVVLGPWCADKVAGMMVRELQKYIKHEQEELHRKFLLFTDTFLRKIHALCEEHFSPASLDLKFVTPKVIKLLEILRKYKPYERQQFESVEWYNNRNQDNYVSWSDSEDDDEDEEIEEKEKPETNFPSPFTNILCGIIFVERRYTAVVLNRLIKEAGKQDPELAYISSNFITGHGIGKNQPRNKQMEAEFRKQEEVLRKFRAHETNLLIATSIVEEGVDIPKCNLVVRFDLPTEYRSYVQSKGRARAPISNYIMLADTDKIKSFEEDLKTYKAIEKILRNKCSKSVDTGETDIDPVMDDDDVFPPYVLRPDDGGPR

[2] = target: T1, HEL (hDicer helicase domain) (Homo sapiens); assay: BLI; conditions: signal too low for Kd, recombinant protein, residues 1-624, protein details: N-terminal His6 (pMCSG7), label: 5' 32P (EMSA), none (BLI)
[3] = smeared bands, no Kd, 5% native PAA gel in 1x TBE at 4 C, label: 5' 32P (EMSA)
[4] = 4 C, 5% native PAA gel in 1x TBE at 4 C, label: 5' 32P (EMSA), none (BLI)
[5] = poorly detected, 5% native PAA gel in 1x TBE at 4 C, label: 5' 32P (EMSA), none (BLI)
[6] = distinct but low abundant complex, 5% native PAA gel in 1x TBE at 4 C, label: 5' 32P (EMSA), none (BLI)

Sequence: AGCUUAUCAGACUGAUGUUGACUGUUGAAUCUCAUGGCAACACCAGUCGAUGGGCUGU [pre-mir-21]
- binding result [1, 3]: binds more weakly

Sequence: GGGAGAAUCAUAAGUAGCCUCCCCCCAUGUUAACAGUUAGCC [R42]
- binding result ([1]; 1 mM ADP, not improved, 5% native PAA gel in 1x TBE at 4 C, label: 5' 32P (EMSA), none (BLI)): binds more weakly
- binding result ([1]; 1 mM AMP-PNP, not improved, 5% native PAA gel in 1x TBE at 4 C, label: 5' 32P (EMSA), none (BLI)): binds more weakly
- binding result ([1]; 1 mM ATP, not improved, 5% native PAA gel in 1x TBE at 4 C, label: 5' 32P (EMSA), none (BLI)): binds more weakly
- binding result [1, 4]: binds more weakly
- binding result [1, 5]: binds more weakly

Sequence: GGGAGAAUCAUAAGUAGCGCAGUGAGUCGUUGUGCUGCCCAUGUUAACAGUUAGCC [R56]
- binding result [1, 4]: binds more weakly
- binding result [1, 5]: binds more weakly

Sequence: GTGCATTGTAGTTGCATTGCATGTTCTGGTCA [D32]
- binding result ([2]; single-stranded DNA): binds more weakly
- binding result ([1]; 1 mM ATP, ATP did not support binding, 5% native PAA gel in 1x TBE at …, label: 5' 32P (EMSA), none (BLI), single-stranded DNA): binds

Sequence: GUGCAUUGUAGUUGCAUUGCAUGUUCUGGUCA [R32]
- binding result [2]: binds more weakly
- binding result ([1]; 1 mM ATP, ATP did not support binding, 5% native PAA gel in 1x TBE at …, label: 5' 32P (EMSA), none (BLI)): binds more weakly
- binding result [1, 6]: binds more weakly

Sequence: GUGCAUUGUAGUUGCAUUGCAUGUUCUGGUGGUACCCAUGCAAUGUUUCCACAGUGCAUC [pre-mir-33a]
- binding result ([1]; smeared bands, no Kd, 5% native PAA gel in 1x TBE at 4 C, label: 5' 32P): binds more weakly

Sequence: TCGAAGTATTCCGCGTACGTG [D21]
- binding result ([2]; single-stranded DNA): binds more weakly
- binding result ([1]; 5% native PAA gel in 1x TBE at 4 C, label: 5' 32P (EMSA), none (BLI), single-stranded DNA): binds more weakly

Sequence: UAGCAGCACGUAAAUAUUGGCGUUAAGAUUCUAAAAUUAUCUCCAGUAUUAACUGUGCUGCUGAA [pre-mir-16-1]
- binding result [1, 3]: binds more weakly

Sequence: UCGAAGUAUUCCGCGUACGUG [R21]
- binding result [2]: binds more weakly
- binding result [1, 6]: binds more weakly

The comparison behind a weaker result is the experiment's own reference, which may not be listed here. Where a protein sequence is shown, tags need not be part of it. The exact form of at least one protein or probe is not confirmed. For some of these results: At least one verdict rests on a figure or table, not on a statement of the authors.
